Read-outs that look alike come from different tables or passages of the source. Some results were stated once for a whole list of compounds, not compound by compound.
Tested on: Trypanosoma cruzi Tulahuen cells expressing beta-galactosidase
Assay: T. cruzi intracellular assay (beta-galactosidase, L6 host cells)
Settings: read-out: T. cruzi IC50 dose

| SMILES | IC50 (listed as 21f) [µM] | IC50 (listed as 20c) [µM] |
| --- | --- | --- |
| O=C1/C(=C/c2ccsc2)Oc2ccccc21 [Aurone 3004, (Z)-2-(thiophen-3-ylmethylene)benzofuran-3(2H)-one] | < 10 | – |
| Cc1[nH]cnc1/C=C1\Oc2ccccc2C1=O [Aurone 9059, (Z)-2-((5-methyl-H-imidazol-4-yl)methylene)benzofuran-3(2H)-one] | – | < 10 |

From patent US20200399238A1, “THERAPEUTIC AURONES” (MIDDLE TENNESSEE STATE UNIVERSITY, priority 2016, published 2020)
